The supplement of paper PMC10849652
The other results are listed elsewhere or left out.

Chains of the proteins cited; added tags and fusions are not shown. Lines headed by an entry give the natural chain unless they say otherwise; changes in a name come on top.
UniProt Q5VV52: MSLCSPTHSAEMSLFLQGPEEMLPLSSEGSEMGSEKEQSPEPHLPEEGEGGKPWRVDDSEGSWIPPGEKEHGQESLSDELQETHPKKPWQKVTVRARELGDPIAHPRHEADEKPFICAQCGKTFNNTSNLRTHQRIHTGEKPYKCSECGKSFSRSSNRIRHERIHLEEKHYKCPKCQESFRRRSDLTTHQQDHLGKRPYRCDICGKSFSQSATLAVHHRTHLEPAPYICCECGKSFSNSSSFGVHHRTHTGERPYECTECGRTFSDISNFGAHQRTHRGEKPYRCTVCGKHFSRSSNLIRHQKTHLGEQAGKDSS
UniProt Q9H7X3: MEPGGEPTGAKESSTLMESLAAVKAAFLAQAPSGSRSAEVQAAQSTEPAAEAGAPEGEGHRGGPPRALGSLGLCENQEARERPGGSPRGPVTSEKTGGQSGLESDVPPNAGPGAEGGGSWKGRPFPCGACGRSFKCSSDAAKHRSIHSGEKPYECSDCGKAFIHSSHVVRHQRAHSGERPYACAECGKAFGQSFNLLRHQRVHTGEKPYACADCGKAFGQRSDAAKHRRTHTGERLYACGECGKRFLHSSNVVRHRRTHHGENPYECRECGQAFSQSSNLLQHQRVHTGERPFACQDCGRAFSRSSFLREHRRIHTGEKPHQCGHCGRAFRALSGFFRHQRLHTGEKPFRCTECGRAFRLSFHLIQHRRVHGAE

biological target: ZNF691 (UniProt Q5VV52); test: log2 fold change, soluble protein after heating vs DMSO (PISA); higher = thermal stabilisation; K562 cells, 10 uM, 30 min; active = over 0.2 and 3.5 SD of the protein, either way, in both replicates (recomputed)
Summary of the method: (§1)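 K562 cells at 2×10^6 cells/mL were treated for 30 min with 10 μM compound, and aliquots were heated for 3 min over 48°C-58°C before pooling. Extraction used PBS with 0.5% NP-40 at 4°C, and soluble protein was the supernatant after 21,000xg for 90 min, measured by TMTpro 16plex LC-MS/MS with channel sums equalised. Thermal stability values, relative to control samples and from duplicates, are log2 fold changes.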

log2 fold change, inactive:
CCCc1cc(C)[nH]c(=O)c1CNC(=O)c1cc(-c2ccnc(N3CCN(C)CC3)c2)cc2c1cnn2C(C)C -0.006, Cc1cccc(-c2[nH]c(C(C)(C)C)nc2-c2ccc3nccnc3c2)n1 -0.053, COc1cc2ncnc(Nc3ccc(F)c(Cl)c3)c2cc1OCCCN1CCOCC1 [gefitinib] 0.013, Cc1cc(Nc2cc(CN3CCOCC3)c3nc(C)c(Cc4ccc(Cl)cc4F)n3n2)n[nH]1 [gandotinib] 0.062, NC1(c2ccc(-c3nc4ccn5c(=O)[nH]nc5c4cc3-c3ccccc3)cc2)CCC1 0.098, O=C1NC(=O)/C(=C\c2ccc3nccnc3c2)S1 0.002, CCN(CCCOc1ccc2c(Nc3cc(CC(=O)Nc4cccc(F)c4)[nH]n3)ncnc2c1)CCOP(=O)(O)O [barasertib] -0.06, Cc1ncc(-c2ccnc(Nc3ccc(S(C)(=O)=O)cc3)n2)n1C(C)C -0.043, Cc1cccc(CC(=O)N2CCc3c2ccc(-c2cn(C)c4ncnc(N)c24)c3F)n1 -0.069, COc1cccc2cc(-c3nc([C@H]4CC[C@H](C(=O)O)CC4)n4ncnc(N)c34)[nH]c12 -0.024, Cc1ccc(NC(=O)c2ccc(CN3CC[C@H](N(C)C)C3)c(C(F)(F)F)c2)cc1Nc1nccc(-c2cncnc2)n1 [bafetinib] -0.002, CCn1cc(-c2ccnc3[nH]c(-c4cccc(CN(C)C)c4)cc23)c(-c2ccc(NC(=O)N(C)C)cc2)n1 0, CC(C)N(C[C@H]1O[C@@H](n2cnc3c(N)ncnc32)[C@H](O)[C@@H]1O)[C@H]1C[C@@H](CCc2nc3cc(C(C)(C)C)ccc3[nH]2)C1 [pinometostat] 0.009, CN1CCC(CNc2ccc3ncc(-c4cccc(OC(F)(F)F)c4)n3n2)CC1 0.091, C[C@@H](N)c1ccc(C(=O)Nc2ccnc3[nH]ccc23)cc1 -0.006, CC[C@H](C)n1cc(C)c2c(C(=O)NCc3c(C)cc(C)[nH]c3=O)cc(-c3ccc(N4CCNCC4)nc3)cc21 0.029, COc1ccc(Cn2ccc3ccc(C(=O)NO)cc32)cc1 -0.009, CS(=O)(=O)N1CCN(Cc2cc3nc(-c4cccc5[nH]ncc45)nc(N4CCOCC4)c3s2)CC1 [pictilisib] 0.041, COc1cc(Nc2ncc3c(n2)-c2ccc(Cl)cc2C(c2c(F)cccc2OC)=NC3)ccc1C(=O)O [alisertib] 0.025, Cn1cc(-c2ccc3c(c2)CCN3C(=O)Cc2cccc(C(F)(F)F)c2)c2c(N)ncnc21 0, O=C(CCCCCCC(=O)Nc1ccccc1)NO [vorinostat] -0.016, C[C@@H](Oc1cc(-c2cnn(C3CCNCC3)c2)cnc1N)c1c(Cl)ccc(F)c1Cl [crizotinib] -0.046, Cc1ccc(-n2nc(C(C)(C)C)cc2NC(=O)Nc2ccc(OCCN3CCOCC3)c3ccccc23)cc1 [doramapimod] -0.021, Cc1cn(-c2cc(NC(=O)c3ccc(C)c(Nc4nccc(-c5cccnc5)n4)c3)cc(C(F)(F)F)c2)cn1 [nilotinib] 0.022, O=C(O)c1ccc2c(c1)nc(Nc1cccc(Cl)c1)c1ccncc12 [silmitasertib] 0.044, C=CC(=O)N1CCC[C@@H](n2nc(-c3ccc(Oc4ccccc4)cc3)c3c(N)ncnc32)C1 [ibrutinib] 0.086, O=C(Nc1nc2ccccc2n1CCN1CCOCC1)c1cccc([N+](=O)[O-])c1 [IRAK-1-4 Inhibitor I] 0.038, Cc1nc(Nc2n[nH]c3c2CN(C(=O)N[C@H](CN(C)C)c2ccccc2)C3(C)C)c2sccc2n1 0.041, CO[C@H]1C[C@@H]2CC[C@@H](C)[C@@](O)(O2)C(=O)C(=O)N2CCCC[C@H]2C(=O)O[C@H]([C@H](C)C[C@@H]2CC[C@H](n3cnnn3)[C@H](OC)C2)CC(=O)[C@H](C)/C=C(\C)[C@@H](O)[C@@H](OC)C(=O)[C@H](C)C[C@H](C)/C=C/C=C/C=C/1C [zotarolimus] 0.061, FC(F)(F)c1ccc(/C=C/c2nc(COc3ccc(CCCCn4ccnn4)cc3)co2)cc1 [mubritinib] -0.031

biological target: ZNF696 (UniProt Q9H7X3); test: as above
Summary of the method: as §1

log2 fold change, inactive:
Cc1cc(Nc2cc(CN3CCOCC3)c3nc(C)c(Cc4ccc(Cl)cc4F)n3n2)n[nH]1 [gandotinib] 0.283, Cc1cccc(CC(=O)N2CCc3c2ccc(-c2cn(C)c4ncnc(N)c24)c3F)n1 0.008, CCn1cc(-c2ccnc3[nH]c(-c4cccc(CN(C)C)c4)cc23)c(-c2ccc(NC(=O)N(C)C)cc2)n1 -0.002, CN1CCC(CNc2ccc3ncc(-c4cccc(OC(F)(F)F)c4)n3n2)CC1 0.008, CS(=O)(=O)N1CCN(Cc2cc3nc(-c4cccc5[nH]ncc45)nc(N4CCOCC4)c3s2)CC1 [pictilisib] -0.01, O=C(CCCCCCC(=O)Nc1ccccc1)NO [vorinostat] 0.086
